The text below walks through data of publication PMC7819943, “Rice protein-binding microarrays: a tool to detect cis-acting elements near promoter regions in rice”.

The other results are listed elsewhere or left out.

The experiment deals with T1, OsSMF1 (Oryza sativa, UniProt Q6ZLB0 1-436).
T1 sequence: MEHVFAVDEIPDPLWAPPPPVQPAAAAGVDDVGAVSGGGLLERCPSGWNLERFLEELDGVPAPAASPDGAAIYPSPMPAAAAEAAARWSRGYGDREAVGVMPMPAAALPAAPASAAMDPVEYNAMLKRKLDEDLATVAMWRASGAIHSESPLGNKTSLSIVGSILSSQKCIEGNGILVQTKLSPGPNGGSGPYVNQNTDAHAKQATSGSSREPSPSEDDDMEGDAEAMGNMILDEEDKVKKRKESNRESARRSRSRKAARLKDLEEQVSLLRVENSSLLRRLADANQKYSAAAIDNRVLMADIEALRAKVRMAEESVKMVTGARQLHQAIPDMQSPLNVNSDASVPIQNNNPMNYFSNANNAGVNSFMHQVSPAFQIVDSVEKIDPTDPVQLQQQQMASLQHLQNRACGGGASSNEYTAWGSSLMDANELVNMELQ
Kind of experiment: protein-binding microarray (RPBM); PBS, 2% BSA, 51.3 ng/ul salmon testes DNA, 50 uM zinc acetate, 200 nM TF, 25 C, 1 h; high values mean tight binding. The settings on record: protein: recombinant; tags: N-terminal polyhistidine and DsRed monomer fusion (pET32a); chain copies: 2; label: CyDye5-dUTP incorporated in the synthesized complementary strand; 3' TTTTT single-stranded linker to array surface; dsDNA, one strand shown. The procedure, abridged:
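Ni–NTA purification followed expression in E. coli BL21-CodonPlus of transcription factors fused N-terminally to a polyhistidine tag and DsRed. At 200 nM in PBS with 2% BSA, salmon testes DNA and 50 µM zinc acetate, the protein was incubated for 1 h at 25 °C with a custom Agilent array that had been primer-extended with Cy5-dUTP and blocked with 2% BSA. After washing, the array was read on an Axon 4000B scanner. The binding signal is per-feature fluorescence intensity in arbitrary units.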
Regarding “CGCACGCTCCCCGACTCCGACTCCGATCCTCTCTCACGCACGGAGTCACCTAGTGCAG”, the binding signal is 4900 fluorescence intensity (a.u.).
As for “AAGGTTCATCGGACCCACGTGTCAGCTGATTGCTTATTCTCGGAGTCACCTAGTGCAG”, the binding signal was 15900 fluorescence intensity (a.u.).
“TGTGGGTTTATTGTCCAACGTTTAACCGTTCATCTTATTTCGGAGTCACCTAGTGCAG”: the binding signal was 3420 fluorescence intensity (a.u.).
Turning to “CGTGCCGCCGATGCCTGTTGCCCTCGTGCCCACTGCCTAGCGGAGTCACCTAGTGCAG”, the binding signal was 37500 fluorescence intensity (a.u.).
For “GGGAAATCCTACTCCTAATAAATCCTAGTAGGCCAACACCCGGAGTCACCTAGTGCAG”, the binding signal is 28800 fluorescence intensity (a.u.).
As for “TTTTGTTCATGTTGATGTCCACGGTGATTGTTCTAGTTATCGGAGTCACCTAGTGCAG”, the figure is 3210 fluorescence intensity (a.u.); as for “AGATGCCACGTGGGATAAAACCACCTTCGAAACTGCTCGGCGGAGTCACCTAGTGCAG”, 11200 fluorescence intensity (a.u.); as for “CCAGAAGCAGGTACCCGGTGCTGAGGCTGGTGCCAGCGCACGGAGTCACCTAGTGCAG”, 3550 fluorescence intensity (a.u.).
As for “CGAGACGGCGTCACCGCCACACATGTAGCGTGCTGCGTGCCGGAGTCACCTAGTGCAG”, the binding signal was 5160 fluorescence intensity (a.u.).
As for “CAATCGCAACACTCCTCCCATTTAATTCTACCAACTTTCTCGGAGTCACCTAGTGCAG”, the figure is 3220 fluorescence intensity (a.u.).
“CGGCGCACGTGCATGGCCAAGCCGGGGCGTGACACCACGGCGGAGTCACCTAGTGCAG”: the binding signal was 3650 fluorescence intensity (a.u.).
Turning to “TGGGAGTTCGGAGCTGGTCAGCATTATCAAGCTTGAGCTGCGGAGTCACCTAGTGCAG”, the binding signal was 3170 fluorescence intensity (a.u.).
On to “CGGTCAAAGCTTGCACTATAGTTATCAGGATTGAGCACCACGGAGTCACCTAGTGCAG”, for which the binding signal is 12500 fluorescence intensity (a.u.).
The value for “GTTCCGGCGGGTGTACGGCACACTCAAGGCAGAGCTTCTCCGGAGTCACCTAGTGCAG” was 17800 fluorescence intensity (a.u.); that for “GTGGATGCTGCCGCGTCGCGACACGTCAGCGCGCGCTGGTCGGAGTCACCTAGTGCAG” was 20700 fluorescence intensity (a.u.).
“GGAGTTGTGCAGCCGCACCCAGTCATCCACTATCTCCTTCCGGAGTCACCTAGTGCAG”: the binding signal was 3440 fluorescence intensity (a.u.).
For the sequence “GTATCCCGATGACAAGTTGAGGGACCTTCGGTGTACTTTTCGGAGTCACCTAGTGCAG”, the binding signal is 16200 fluorescence intensity (a.u.).
Consider “CGCAGTCACCTCACCACACGTCGATGGACACGGCGCACCACGGAGTCACCTAGTGCAG”, for which the binding signal is 3490 fluorescence intensity (a.u.).
As for “TATCTATAGGCTCTCTATAAGAGATCCATGTCAGTATATTCGGAGTCACCTAGTGCAG”, the figure is 6470 fluorescence intensity (a.u.).
Take “CGCGCGCCCGCTCCACACCACCGACCCGTGGCAACGTTTCCGGAGTCACCTAGTGCAG”: the binding signal is 4100 fluorescence intensity (a.u.).
For the sequence “CATCGCCGACAGCGACACGTTAGTACAATCACTGTACTCCCGGAGTCACCTAGTGCAG”, the binding signal is 5100 fluorescence intensity (a.u.).
The value for “CAGCCATACCATCATCATCAACATCCTCCTCCTCCTCATCCGGAGTCACCTAGTGCAG” was 3390 fluorescence intensity (a.u.).
As for “AATGTGACTCCACCTACTTAGTCCTGAGGCCACGTGGAATCGGAGTCACCTAGTGCAG”, the figure is 5800 fluorescence intensity (a.u.); as for “AGATCGACACGTTAGTCTACACACCTATGCGTGCCTATGCCGGAGTCACCTAGTGCAG”, 3580 fluorescence intensity (a.u.).
As for “AAACATTATTAAATAGGTGTATGAATGACAGTCATACTTGCGGAGTCACCTAGTGCAG”, the figure is 3490 fluorescence intensity (a.u.).
For the sequence “TCCAAGCACCGAGAGCCCGATTCACCGACCACGCCCACCGCGGAGTCACCTAGTGCAG”, the binding signal was 3880 fluorescence intensity (a.u.).
With “CAGCCAACGACTAGACAACATGCTCCACCTTTGCAAATCCCGGAGTCACCTAGTGCAG”, the binding signal is 3610 fluorescence intensity (a.u.).
For “ATTGGTAAATTTATGACAGAAACCGTAGCAAGAAACTATTCGGAGTCACCTAGTGCAG”, the binding signal is 11500 fluorescence intensity (a.u.).
The value for “AAGAACTTTGATATATGACTAGCGTAGCACGTGGAGGATCCGGAGTCACCTAGTGCAG” was 4540 fluorescence intensity (a.u.); that for “GGGGACATTACTCCGTGGTTTACATGTCATCCAAATAGTTCGGAGTCACCTAGTGCAG” was 5320 fluorescence intensity (a.u.); that for “TCACAATCAGTTGATTACTAGCCACAACTTTCAATCCTAACGGAGTCACCTAGTGCAG” was 3360 fluorescence intensity (a.u.).
For “ATCGTAGATTTGATATGAGTGCTCGTATTTATGGTTAATTCGGAGTCACCTAGTGCAG”, the binding signal was 3350 fluorescence intensity (a.u.).
Turning to “AGGATAGGGAGAGAGGTGAAAGAGACACGGAGGAGAGGGACGGAGTCACCTAGTGCAG”, the binding signal is 3500 fluorescence intensity (a.u.).
On to “GGAGCCACGTCGGCCAGCGGCCTCCGCCGTCGAGCTTTTCCGGAGTCACCTAGTGCAG”, for which the binding signal was 5410 fluorescence intensity (a.u.).
The value for “AATTCTCCAAGCCCTGTGTTGCATCTGCATGCCATCTCATCGGAGTCACCTAGTGCAG” was 25300 fluorescence intensity (a.u.); that for “ACCAGTCCCAAATCAAACAGTCCTACTAGTTGCATTTTGTCGGAGTCACCTAGTGCAG” was 47200 fluorescence intensity (a.u.); that for “CCCACGGGAGAATTCCCGGCCGCGCGGCGCGCGAGCACCACGGAGTCACCTAGTGCAG” was 5740 fluorescence intensity (a.u.).
Consider “TCGACGTGTCGGCCAGGTTCCAGCGTGGCAGCCGTCTATACGGAGTCACCTAGTGCAG”, for which the binding signal is 4490 fluorescence intensity (a.u.).
Regarding “CCCATACATGTAGGGATGACTAGGCGCTGGTAACCAATTACGGAGTCACCTAGTGCAG”, the binding signal was 7120 fluorescence intensity (a.u.).
Turning to “CATGGCGGAGCCAAGAGCATCTCACTAACACTAGTATCGACGGAGTCACCTAGTGCAG”, the binding signal is 26500 fluorescence intensity (a.u.).
“TGGAGATGGATGATGACTTTGAGGGATTGTCATCGAGGCACGGAGTCACCTAGTGCAG”: the binding signal was 4040 fluorescence intensity (a.u.).
“TGTTAAATTCGTCTCGCAAAATAGCCTAAGGGTTATAGAACGGAGTCACCTAGTGCAG”: the binding signal is 40500 fluorescence intensity (a.u.).
